Reference: article PMC7819943, “Rice protein-binding microarrays: a tool to detect cis-acting elements near promoter regions in rice”
This is one part of the list.

molecular target: T1, OsSMF1 (Oryza sativa, UniProt Q6ZLB0 1-436); test: protein-binding microarray (RPBM); PBS, 2% BSA, 51.3 ng/ul salmon testes DNA, 50 uM zinc acetate, 200 nM TF, 25 C, 1 h; high values mean tight binding; conditions: protein: recombinant; tags: N-terminal polyhistidine and DsRed monomer fusion (pET32a); chain copies: 2; label: CyDye5-dUTP incorporated in the synthesized complementary strand; 3' TTTTT single-stranded linker to array surface; dsDNA, one strand shown
T1 sequence: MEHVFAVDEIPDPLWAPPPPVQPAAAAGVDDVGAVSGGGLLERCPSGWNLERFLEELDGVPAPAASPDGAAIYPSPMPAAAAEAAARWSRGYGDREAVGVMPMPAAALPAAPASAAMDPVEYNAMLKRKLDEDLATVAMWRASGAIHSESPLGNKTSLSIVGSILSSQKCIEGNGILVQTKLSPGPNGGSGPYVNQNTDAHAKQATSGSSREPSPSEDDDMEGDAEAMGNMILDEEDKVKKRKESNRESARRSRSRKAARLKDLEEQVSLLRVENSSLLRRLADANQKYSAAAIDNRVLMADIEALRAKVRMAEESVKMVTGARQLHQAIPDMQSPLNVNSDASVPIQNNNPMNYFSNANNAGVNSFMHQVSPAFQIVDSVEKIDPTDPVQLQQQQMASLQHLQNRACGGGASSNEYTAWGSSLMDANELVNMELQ
Outline: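 Transcription factors were each fused at the N-terminus to a polyhistidine tag plus DsRed and expressed in E. coli BL21-CodonPlus before Ni–NTA purification. Binding to a double-stranded custom Agilent array was carried out with 200 nM protein at 25 °C for 1 h in PBS, 2% BSA, salmon testes DNA and 50 µM zinc acetate. The binding signal is per-feature fluorescence intensity, in arbitrary units, on an Axon 4000B scanner.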

Sequence | binding signal
TTAAATGTTGGTCGAAAAGTCAAATGGCGTCATACATTAACGGAGTCACCTAGTGCAG | 4900 fluorescence intensity (a.u.)
TAGGATGCCACGTCATCTCTCCCTTCCCCTCTCTCTCTCCCGGAGTCACCTAGTGCAG | 27000 fluorescence intensity (a.u.)
AGGGGAGGGATGTTTGACGCCTTTGATAATATTTCAAGTACGGAGTCACCTAGTGCAG | 3280 fluorescence intensity (a.u.)
CGCAACTAATCTTCGTCCTCTTCCCAGACAGCCTTGTTGTCGGAGTCACCTAGTGCAG | 3140 fluorescence intensity (a.u.)
GTCGTGGCAACTGGCAGTGTCGGCTGGTGACGGCGGCGGACGGAGTCACCTAGTGCAG | 3440 fluorescence intensity (a.u.)
CCCTCAATAATTAGCGGCTCAGCCGTGTCACCACTAGGGTCGGAGTCACCTAGTGCAG | 6150 fluorescence intensity (a.u.)
ACCCCACTAGCGAGCTCCTCCCCGCGCGTGGACGGCCGGTCGGAGTCACCTAGTGCAG | 3300 fluorescence intensity (a.u.)
GGGGTGATGTGCTAGGTAGGGACACGGCGGCTATAGGTGCCGGAGTCACCTAGTGCAG | 6190 fluorescence intensity (a.u.)
TAGGTTTTCGGGCCGGCCCATATTTTCTTAGGTGACAATGCGGAGTCACCTAGTGCAG | 3240 fluorescence intensity (a.u.)
AGTGTCATATATATATATATATATATATATTAGTCTTTCACGGAGTCACCTAGTGCAG | 3540 fluorescence intensity (a.u.)
AGACCTCGCCACATCACCCATGCACGCATGGATGACGACACGGAGTCACCTAGTGCAG | 10500 fluorescence intensity (a.u.)
GACGCGGCGCAGTGCAACCAACAAACCGGGGCGGGCGGGGCGGAGTCACCTAGTGCAG | 5240 fluorescence intensity (a.u.)
CGCGCCAGCCGCCACCGCCGCCGCCGCACCCGCCACCCATCGGAGTCACCTAGTGCAG | 3220 fluorescence intensity (a.u.)
TTTCTATTTGTCGACTAGGATGCCACATCAATCAAAACAACGGAGTCACCTAGTGCAG | 4680 fluorescence intensity (a.u.)
GTTCGCCGTGGATTTCTTTTCTTGCGTCAGTGATACTGATCGGAGTCACCTAGTGCAG | 5040 fluorescence intensity (a.u.)
TATATCTAGTTTGCTCAGACCTACTGCTATTTCTTTCTGACGGAGTCACCTAGTGCAG | 41200 fluorescence intensity (a.u.)
CTGGGTGTGGGTGTGGGTCTGGGTCTGGGTGGAAGAGGAACGGAGTCACCTAGTGCAG | 3420 fluorescence intensity (a.u.)
GAATCTGAAACTACCTCTGTGCATAGGCCATCTCATCCTCCGGAGTCACCTAGTGCAG | 4430 fluorescence intensity (a.u.)
CGCCGCGTTGGTCGGCACGTCACACAAACACACACGTGCGCGGAGTCACCTAGTGCAG | 7150 fluorescence intensity (a.u.)
CCACCTCGACGGCTGGCTGGCTGGCTCCACGTCGGACCCCCGGAGTCACCTAGTGCAG | 12700 fluorescence intensity (a.u.)
CATGGATGAACAAGATGACATCAAGATCAAGTCCTCCAAGCGGAGTCACCTAGTGCAG | 21800 fluorescence intensity (a.u.)
CGAATGTGTTAGGCCCACCAACCATACTGGGCCCTAGCCCCGGAGTCACCTAGTGCAG | 23300 fluorescence intensity (a.u.)
TCTTTCTTTCTTTCTTTCTTGTGCGTCATCTCTATCACCGCGGAGTCACCTAGTGCAG | 10700 fluorescence intensity (a.u.)

Reprinted from the listing for reference:
Sequence | binding signal
GACGCGGCGCAGTGCAACCAACAAACCGGGGCGGGCGGGGCGGAGTCACCTAGTGCAG | 5240 fluorescence intensity (a.u.)
CGCGCCAGCCGCCACCGCCGCCGCCGCACCCGCCACCCATCGGAGTCACCTAGTGCAG | 3220 fluorescence intensity (a.u.)
TTTCTATTTGTCGACTAGGATGCCACATCAATCAAAACAACGGAGTCACCTAGTGCAG | 4680 fluorescence intensity (a.u.)
GTTCGCCGTGGATTTCTTTTCTTGCGTCAGTGATACTGATCGGAGTCACCTAGTGCAG | 5040 fluorescence intensity (a.u.)
TATATCTAGTTTGCTCAGACCTACTGCTATTTCTTTCTGACGGAGTCACCTAGTGCAG | 41200 fluorescence intensity (a.u.)
CTGGGTGTGGGTGTGGGTCTGGGTCTGGGTGGAAGAGGAACGGAGTCACCTAGTGCAG | 3420 fluorescence intensity (a.u.)
